Laboratory results: PMC4145799
Results are given in words; binding and its absence hold for the method and conditions named. Binding can be weak; no strength is given.

By UniProt entry, the sequences of proteins in these tests, tags left out. Where a name states a change or a piece, a line headed by the entry shows the natural chain unless it says otherwise.
UniProt P0A9H3: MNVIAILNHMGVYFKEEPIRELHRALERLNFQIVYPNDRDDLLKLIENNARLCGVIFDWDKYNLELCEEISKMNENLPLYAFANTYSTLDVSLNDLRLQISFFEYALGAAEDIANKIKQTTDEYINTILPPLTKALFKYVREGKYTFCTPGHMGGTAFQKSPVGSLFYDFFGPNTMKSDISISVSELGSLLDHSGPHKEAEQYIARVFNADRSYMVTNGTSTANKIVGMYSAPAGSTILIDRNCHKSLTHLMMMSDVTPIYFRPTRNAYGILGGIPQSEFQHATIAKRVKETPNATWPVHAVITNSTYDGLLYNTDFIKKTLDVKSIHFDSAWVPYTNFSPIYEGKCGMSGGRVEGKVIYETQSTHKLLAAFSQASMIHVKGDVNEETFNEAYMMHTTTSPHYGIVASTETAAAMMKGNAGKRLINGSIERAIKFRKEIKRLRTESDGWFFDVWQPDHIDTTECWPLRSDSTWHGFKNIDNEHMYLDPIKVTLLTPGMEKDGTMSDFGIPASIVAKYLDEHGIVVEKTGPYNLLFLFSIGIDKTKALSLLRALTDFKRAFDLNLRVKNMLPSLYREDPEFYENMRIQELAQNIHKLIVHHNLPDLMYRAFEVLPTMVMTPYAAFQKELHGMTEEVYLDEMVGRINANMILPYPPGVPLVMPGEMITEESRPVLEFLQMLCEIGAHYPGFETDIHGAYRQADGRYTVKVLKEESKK
UniProt P31473: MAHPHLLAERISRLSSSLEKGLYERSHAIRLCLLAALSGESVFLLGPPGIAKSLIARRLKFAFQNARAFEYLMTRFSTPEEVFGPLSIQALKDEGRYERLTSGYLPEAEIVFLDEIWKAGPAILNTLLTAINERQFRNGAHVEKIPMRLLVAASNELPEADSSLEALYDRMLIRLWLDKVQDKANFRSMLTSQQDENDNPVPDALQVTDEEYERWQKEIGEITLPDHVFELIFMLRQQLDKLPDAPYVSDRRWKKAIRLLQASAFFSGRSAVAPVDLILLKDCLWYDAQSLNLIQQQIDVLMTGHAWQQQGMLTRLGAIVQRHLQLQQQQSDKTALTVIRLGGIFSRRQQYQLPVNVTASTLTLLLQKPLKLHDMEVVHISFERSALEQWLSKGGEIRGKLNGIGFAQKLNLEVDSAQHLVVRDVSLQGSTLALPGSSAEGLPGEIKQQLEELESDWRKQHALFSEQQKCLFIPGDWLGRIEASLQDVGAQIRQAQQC

Target: inducible lysine decarboxylase LdcI (Escherichia coli) (UniProt P0A9H3)
Experiment: cryo-EM structure; LdcI-LARA complex, 7.5 Å; 7.3 µM LdcI with 73 µM LARA (1:10), 15 min at room temperature, 50 mM Mes pH 6.5, 100 mM NaCl, 0.2 mM PLP, 1 mM DTT, 0.01% glutaraldehyde; D5 symmetry imposed; both purified

binding: binds
Substance: LARA domain of RavA (LdcI associating domain of RavA) (from UniProt P31473) (domain or fragment)
